{"source": "patent US20210023074A1", "about": "“TREATMENT OF DEMYELINATING DISEASES” (Victoria Link Ltd., priority 2018, published 2021)", "system": "experimental autoimmune encephalomyelitis (EAE) mice", "experiment": "EAE model of MS, disease score, treatment from day of disease onset (score >1)", "format": "in vivo, C57BL/6 mice", "settings": "for disease score (functional recovery), comparison nalmefene vs clemastine: nalmefene 0.01 mg/kg i.p. daily, clemastine fumerate 10 mg/kg i.p., from disease onset", "experimental": "[…] Shown are the aligned scores from mice (n=15 in Veh, 3 in 0.1, 8 in 0.03, 13 in 0.01, and 4 in 0.003 mg/kg groups) starting from onset/treatment initiation. ****p<0.0001 by two-way ANOVA all doses compared to vehicle.\nExperimental detail: EAE was induced in female C57BL/6 mice as described in Example 1. On the day of disease onset (score >1, dotted line), mice were started on daily treatment with vehicle only (Veh) or nalmefene (NaIM) at 0.1, 0.03, 0.01, or 0.003 mg/kg by i.p. injection. The peak disease score during the first EAE episode was recorded and shown are the mean and standard error of individual mice (n=15 in Veh, 3 in 0.1, 8 in 0.03, 13 in 0.01, and 4 in 0.003 mg/kg groups). **p<0.01 compared to vehicle by Kruskal-Wallis with Dunn's multiple comparison test.\n[…] Shown are the percentages of mice in each group that recovered (n=15 in Veh, 3 in 0.1, 8 in 0.03, 13 in 0.01, and 4 in 0.003 mg/kg groups). ****p<0.0001, **p<0.01, and *p<0.05 by Fisher's exact test compared to vehicle.\n[…] Shown are the number of days mice were in recovery in each group (n=15 in Veh, 3 in 0.1, 8 in 0.03, 13 in 0.01, and 4 in 0.003 mg/kg groups). ****p<0.0001 and *p<0.05 by one-way ANOVA with Holm-Sidak's multiple comparison test.\nExperimental detail: EAE was induced in female C57BL/6 mice as described in Example 1. On the day of disease onset (score >1, dotted line), mice were treated with vehicle only (daily), nalmefene (0.01 mg/kg by i.p. injection daily), the KOR antagonist norBNI (10 mg/kg by i.p. injection weekly), both nalmefene and norBNI, or the MOR antagonist BFNA (10 mg/kg by i.p. injection weekly). Shown are the aligned scores from mice (n=7-9/group) starting from onset/treatment initiation. ****p<0.0001 by two-way ANOVA NaIM compared to vehicle or NalM+noBNI, and NalM+norBNI compared to vehicle.\nExperimental detail: EAE was induced in female C57BL/6 mice as described in Example 1. […] The peak disease score during the first EAE episode was recorded, and mice were considered recovered if they received a score <0.5 by day 23 post treatment initiation. […]", "data": [{"compound": "CN1CCC[C@@H]1CCO[C@](C)(c1ccccc1)c1ccc(Cl)cc1", "note": "[clemastine fumerate]", "values": [{"measurement": "percentage of mice recovered (score <0.5 by day 23 post treatment initiation)", "setting": "10 mg/kg i.p. from disease onset", "result": "over 50%"}, {"measurement": "disease score (functional recovery), comparison nalmefene vs clemastine", "result": "reduction (but not ablation) of disease"}, {"measurement": "disease score (functional recovery), comparison nalmefene vs clemastine", "setting": "listed as clemastine", "result": "much less effective that nalmefene at enabling full functional recovery"}]}]}
